Data published in article PMC6544628, “Plasmodium pseudo-Tyrosine Kinase-like binds PP1 and SERA5 and is exported to host erythrocytes” (Scientific Reports, 2019).
Results are given in words; binding and its absence hold for the method and conditions named. In cells and extracts the contact can be indirect. These calls come from enrichment with a bait or labelling near it, and not all partners need be listed. Tags and fused reporters may be left off the sequences shown.

Amino acid sequences for entries named in this document (tags omitted). Residues count along the entry.
UniProt Q64339, residues 1-155: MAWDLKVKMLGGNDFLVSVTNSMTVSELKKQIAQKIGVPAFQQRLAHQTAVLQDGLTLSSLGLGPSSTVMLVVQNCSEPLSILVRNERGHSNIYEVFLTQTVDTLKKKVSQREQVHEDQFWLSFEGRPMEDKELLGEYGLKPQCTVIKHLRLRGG

Target: T1, PbpTKL-AID-HA (P. berghei)
T1 sequence: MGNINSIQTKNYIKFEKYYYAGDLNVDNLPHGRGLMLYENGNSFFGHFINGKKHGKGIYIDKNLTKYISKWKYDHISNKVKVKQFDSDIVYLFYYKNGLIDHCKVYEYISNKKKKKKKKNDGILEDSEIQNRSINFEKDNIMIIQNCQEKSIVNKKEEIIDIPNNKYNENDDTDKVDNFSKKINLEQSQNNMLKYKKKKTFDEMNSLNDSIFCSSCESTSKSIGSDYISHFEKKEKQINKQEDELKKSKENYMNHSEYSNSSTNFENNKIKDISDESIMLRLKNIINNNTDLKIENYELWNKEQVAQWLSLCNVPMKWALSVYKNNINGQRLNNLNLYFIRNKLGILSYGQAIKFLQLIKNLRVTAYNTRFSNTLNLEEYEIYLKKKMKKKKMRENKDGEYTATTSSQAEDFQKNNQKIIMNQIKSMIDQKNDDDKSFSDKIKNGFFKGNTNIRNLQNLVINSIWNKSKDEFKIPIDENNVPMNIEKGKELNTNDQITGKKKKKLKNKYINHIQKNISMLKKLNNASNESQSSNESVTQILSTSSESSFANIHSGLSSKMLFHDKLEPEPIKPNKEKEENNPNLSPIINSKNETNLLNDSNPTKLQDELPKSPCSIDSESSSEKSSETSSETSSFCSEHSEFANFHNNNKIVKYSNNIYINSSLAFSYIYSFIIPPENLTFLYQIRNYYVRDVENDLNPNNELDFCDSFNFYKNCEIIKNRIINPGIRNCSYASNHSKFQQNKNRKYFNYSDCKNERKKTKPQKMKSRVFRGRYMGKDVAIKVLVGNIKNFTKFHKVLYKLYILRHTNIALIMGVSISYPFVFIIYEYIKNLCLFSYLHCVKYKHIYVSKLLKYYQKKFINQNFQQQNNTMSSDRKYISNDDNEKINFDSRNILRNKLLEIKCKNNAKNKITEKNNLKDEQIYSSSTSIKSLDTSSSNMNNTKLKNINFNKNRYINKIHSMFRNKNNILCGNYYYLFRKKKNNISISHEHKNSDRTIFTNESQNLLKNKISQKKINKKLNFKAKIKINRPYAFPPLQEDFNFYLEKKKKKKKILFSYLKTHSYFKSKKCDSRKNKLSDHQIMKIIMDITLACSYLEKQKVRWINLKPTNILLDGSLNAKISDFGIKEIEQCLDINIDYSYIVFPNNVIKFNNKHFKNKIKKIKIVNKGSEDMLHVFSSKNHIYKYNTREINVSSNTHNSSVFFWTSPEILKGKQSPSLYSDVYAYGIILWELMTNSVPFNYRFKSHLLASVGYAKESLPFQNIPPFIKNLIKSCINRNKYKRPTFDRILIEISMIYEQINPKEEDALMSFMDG
Experiment: affinity purification with mass spectrometry; anti-HA agarose immunoprecipitation from ghost lysates of trophozoite-infected mouse erythrocytes (PbpTKL-AID-HA line) against total lysates of the wild-type pG230 line; NanoLC-MS/MS, three biological replicates

With ISG15 (from UniProt Q64339 1-155) the binding was “binds”.
